For at least one compound, name, drawing or mass did not settle the structure.
How the values were obtained:
Tic-FX cells [1] = test: Culturing of iPS cells in the presence of low molecular weight compounds (cell count); assay type: cell-based, human; conditions: 0.5 μM added to medium with 1 μM Y-27632, 20 ng/mL LIF, 40 ng/mL FGF2; five days
Method: Media were produced by adding 1 μM of Y-27632, 20 ng/mL of LIF and 40 ng/mL of FGF2 to the basal medium, and media were produced by adding the following inhibitors to the media at concentrations of 1 μM (PD0325901), 0.3 μM (CHIR99021), 0.5 μM (SB590885), 1 μM (WH-4-023), 10 μM (SP600125), 10 μM (SB203580), 5 μM (Go6983), 5 μM (GF109203X), 2 μM (Porsomorphin) or 400 ng/mL (Noggin) each. The Tic-FX cells were proliferated in suspension culture in ultra-low attachment 6-well plates (manufactured by Coming Incorporated) containing the media in the presence of 10% CO2 at 37° C. The cells were cultured for five days, and the cells were counted. In FIG. 6, “−” indicates the results using the medium to which no inhibitor was added.

Tic-FX cells [2] = test: Real-time PCR of pluripotency markers in cells proliferated with inhibitors; assay type: cell-based, human; conditions: 0.5 μM added to medium with 1 μM Y-27632, 20 ng/mL LIF, 40 ng/mL FGF2; versus control Tic-FX
Text: Cells cultured in the basal medium were used as the control (indicated by Tic-FX in FIG. 7A and FIG. 7B).

## CN(C)CCOc1ccc(-c2nc(-c3ccncc3)c(-c3ccc4c(c3)CC/C4=N\O)[nH]2)cc1 [SB590885, 5-(2-(4-(2-dimethylaminoethoxy)phenyl)-5-(4-pyridinyl)-1H-imidazol-4-yl)-2,3-dihydro-1H-indoen-1-one oxime]
Tic-FX cells [1]
  growth rate of the cells: high
Tic-FX cells [2]
  expression level of NANOG: increased
  expression level of OCT3/4: increased

Reference: patent US20190127707A1, “MEDIUM FOR CULTURING NAIVE PLURIPOTENT STEM CELLS AND METHOD FOR CULTURING PLURIPOTENT STEM CELLS” (KYOWA HAKKO BIO CO., LTD., priority 2016, published 2019)
